Source: publication PMC5347793, “Transcription factor LSF-DNMT1 complex dissociation by FQI1 leads to aberrant DNA methylation and gene expression” (Oncotarget, 2016)
Results are given in words; binding and its absence hold for the method and conditions named. In cells and extracts the contact can be indirect. Some results given as binding are weak or reduced against the parent protein; the word gives no strength.

By UniProt entry, the sequences of proteins in these tests, tags left out.
UniProt P26358: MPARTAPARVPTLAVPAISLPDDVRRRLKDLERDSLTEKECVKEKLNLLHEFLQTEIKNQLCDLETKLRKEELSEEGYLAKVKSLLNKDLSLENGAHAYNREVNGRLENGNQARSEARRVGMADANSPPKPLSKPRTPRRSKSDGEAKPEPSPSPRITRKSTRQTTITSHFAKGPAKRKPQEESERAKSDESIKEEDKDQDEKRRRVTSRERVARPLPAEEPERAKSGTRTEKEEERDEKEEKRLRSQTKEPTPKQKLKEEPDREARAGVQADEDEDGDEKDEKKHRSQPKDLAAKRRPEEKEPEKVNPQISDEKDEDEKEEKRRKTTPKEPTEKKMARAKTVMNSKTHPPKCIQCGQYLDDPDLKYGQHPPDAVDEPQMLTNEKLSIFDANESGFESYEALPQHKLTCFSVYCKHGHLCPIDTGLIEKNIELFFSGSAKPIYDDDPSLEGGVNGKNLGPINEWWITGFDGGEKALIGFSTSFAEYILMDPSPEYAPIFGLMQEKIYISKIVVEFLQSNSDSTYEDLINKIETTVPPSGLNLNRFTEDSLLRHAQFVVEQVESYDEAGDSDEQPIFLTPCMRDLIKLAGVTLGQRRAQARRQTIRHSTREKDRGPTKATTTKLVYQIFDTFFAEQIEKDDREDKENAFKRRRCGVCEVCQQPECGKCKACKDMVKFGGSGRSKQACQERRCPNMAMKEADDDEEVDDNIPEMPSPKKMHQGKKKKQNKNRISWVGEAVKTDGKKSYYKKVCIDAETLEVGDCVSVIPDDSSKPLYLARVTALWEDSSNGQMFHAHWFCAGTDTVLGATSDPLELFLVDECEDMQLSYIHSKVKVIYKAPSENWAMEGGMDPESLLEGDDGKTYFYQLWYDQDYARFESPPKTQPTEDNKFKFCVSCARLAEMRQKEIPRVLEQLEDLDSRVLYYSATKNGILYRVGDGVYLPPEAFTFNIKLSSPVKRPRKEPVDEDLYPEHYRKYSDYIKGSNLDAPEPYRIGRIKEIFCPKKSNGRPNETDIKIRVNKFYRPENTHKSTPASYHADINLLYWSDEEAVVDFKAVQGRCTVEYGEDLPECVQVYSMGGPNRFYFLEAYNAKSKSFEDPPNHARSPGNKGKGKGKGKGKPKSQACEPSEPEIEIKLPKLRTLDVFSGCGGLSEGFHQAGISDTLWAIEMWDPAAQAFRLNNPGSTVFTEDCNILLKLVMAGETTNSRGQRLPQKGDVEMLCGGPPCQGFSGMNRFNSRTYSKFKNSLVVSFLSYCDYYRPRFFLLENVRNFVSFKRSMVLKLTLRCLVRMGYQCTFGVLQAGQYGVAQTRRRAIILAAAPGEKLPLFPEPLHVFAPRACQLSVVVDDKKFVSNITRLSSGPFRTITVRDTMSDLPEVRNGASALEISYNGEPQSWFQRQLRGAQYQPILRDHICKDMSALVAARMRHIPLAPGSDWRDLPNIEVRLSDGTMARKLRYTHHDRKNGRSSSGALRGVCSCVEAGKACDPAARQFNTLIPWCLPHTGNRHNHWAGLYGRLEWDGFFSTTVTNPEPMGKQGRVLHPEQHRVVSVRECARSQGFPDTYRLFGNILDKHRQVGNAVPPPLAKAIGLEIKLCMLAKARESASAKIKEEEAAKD

T1: transcription factor LSF (Late SV40 Factor), endogenous (human (endogenous in HEK293T)) (UniProt Q12800)
T1 sequence: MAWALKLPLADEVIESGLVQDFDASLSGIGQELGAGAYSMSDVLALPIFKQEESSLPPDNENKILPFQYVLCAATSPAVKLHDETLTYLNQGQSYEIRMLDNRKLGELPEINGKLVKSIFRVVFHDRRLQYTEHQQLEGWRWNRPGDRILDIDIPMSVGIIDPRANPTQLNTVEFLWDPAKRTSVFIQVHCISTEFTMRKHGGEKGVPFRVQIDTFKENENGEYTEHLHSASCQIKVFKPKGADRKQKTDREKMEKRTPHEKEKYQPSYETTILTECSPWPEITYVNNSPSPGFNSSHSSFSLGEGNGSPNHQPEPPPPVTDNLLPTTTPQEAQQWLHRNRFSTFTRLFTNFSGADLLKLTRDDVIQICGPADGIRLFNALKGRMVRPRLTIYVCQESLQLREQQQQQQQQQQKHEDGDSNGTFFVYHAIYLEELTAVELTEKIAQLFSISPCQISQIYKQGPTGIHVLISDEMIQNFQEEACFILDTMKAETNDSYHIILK


How the values were obtained:
[1] = biological target: T1, transcription factor LSF (Late SV40 Factor), endogenous (human (endogenous in HEK293T)); assay: co-IP; endogenous proteins of HEK293T cells (nuclear extract in the results, 1 mg whole cell lysate in the methods); IP with anti-LSF or anti-DNMT1 antibody, normal IgG as control; untreated or DMSO control; western blot
[2] = biological target: maintenance DNA (cytosine-5) methyltransferase 1 (DNMT1), endogenous (human (endogenous in HEK293T)) (UniProt P26358); assay: as above

Binder	binding [1]	binding [2]
UHRF1, endogenous (protein, UniProt Q96T88 1-793) MWIQVRTMDGRQTHTVDSLSRLTKVEELRRKIQELFHVEPGLQRLFYRGKQMEDGHTLFDYEVRLNDTIQLLVRQSLVLPHSTKERDSELSDTDSGCCLGQSESDKSSTHGEAAAETDSRPADEDMWDETELGLYKVNEYVDARDTNMGAWFEAQVVRVTRKAPSRDEPCSSTSRPALEEDVIYHVKYDDYPENGVVQMNSRDVRARARTIIKWQDLEVGQVVMLNYNPDNPKERGFWYDAEISRKRETRTARELYANVVLGDDSLNDCRIIFVDEVFKIERPGEGSPMVDNPMRRKSGPSCKHCKDDVNRLCRVCACHLCGGRQDPDKQLMCDECDMAFHIYCLDPPLSSVPSEDEWYCPECRNDASEVVLAGERLRESKKKAKMASATSSSQRDWGKGMACVGRTKECTIVPSNHYGPIPGIPVGTMWRFRVQVSESGVHRPHVAGIHGRSNDGAYSLVLAGGYEDDVDHGNFFTYTGSGGRDLSGNKRTAEQSCDQKLTNTNRALALNCFAPINDQEGAEAKDWRSGKPVRVVRNVKGGKNSKYAPAEGNRYDGIYKVVKYWPEKGKSGFLVWRYLLRRDDDEPGPWTKEGKDRIKKLGLTMQYPEGYLEALANREREKENSKREEEEQQEGGFASPRTGKGKWKRKSAGGGPSRAGSPRRTSKKTKVEPYSLTAQQSSLIREDKSNAKLWNEVLASLKDRPASGSPFQLFLSKVEETFQCICCQELVFRPITTVCQHNVCKDCLDRSFRAQVFSCPACRYDLGRSYAMQVNQPLQTVLNQLFPGYGNGR	binds	–
transcription factor LSF (Late SV40 Factor), endogenous (protein, UniProt Q12800 1-502) MAWALKLPLADEVIESGLVQDFDASLSGIGQELGAGAYSMSDVLALPIFKQEESSLPPDNENKILPFQYVLCAATSPAVKLHDETLTYLNQGQSYEIRMLDNRKLGELPEINGKLVKSIFRVVFHDRRLQYTEHQQLEGWRWNRPGDRILDIDIPMSVGIIDPRANPTQLNTVEFLWDPAKRTSVFIQVHCISTEFTMRKHGGEKGVPFRVQIDTFKENENGEYTEHLHSASCQIKVFKPKGADRKQKTDREKMEKRTPHEKEKYQPSYETTILTECSPWPEITYVNNSPSPGFNSSHSSFSLGEGNGSPNHQPEPPPPVTDNLLPTTTPQEAQQWLHRNRFSTFTRLFTNFSGADLLKLTRDDVIQICGPADGIRLFNALKGRMVRPRLTIYVCQESLQLREQQQQQQQQQQKHEDGDSNGTFFVYHAIYLEELTAVELTEKIAQLFSISPCQISQIYKQGPTGIHVLISDEMIQNFQEEACFILDTMKAETNDSYHIILK	–	binds
